Data source: PubChem BioAssay AID504784 (Drosophila RNAi Screening Center, 2011)
Screen: 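Fly genes whose silencing alters how much lipid cells keep in droplets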 (primary screen). System: Drosophila Kc167 embryonic cells. Reagents: long dsRNA against Drosophila genes, about 250 ng dsRNA per well. Time to read-out: 4 days. Treatment: cells fed 400 µM oleic acid bound to BSA. Measurement: 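Microscope images give a droplet-to-nucleus area ratio, taken as log and converted to a screen-wide B-score; higher values mean greater lipid storage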. Reading the numbers: droplet/nuclear area B-score: higher = more stored lipid (overstorage).
The screen tested about 17,000 reagents; shown is an unselected part of those that have a named target and a result. 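Each column is one replicate's B-score; the combined score over replicates was not deposited, so single values may mislead.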 Not all columns of the deposit are shown.

The opening 3 records, ahead of the listing:
Pgant1 [DRSC07095]
- droplet/nuclear area B-score, replicate 1: 0.0564

CG13921 [DRSC08390]
- droplet/nuclear area B-score, replicate 1: -1.02

CG10996 [DRSC19363]
- droplet/nuclear area B-score, replicate 1: 0.347

Results, from the first entry:
Pgant1 [DRSC07095]
- droplet/nuclear area B-score, replicate 1: 0.0564

CG13921 [DRSC08390]
- droplet/nuclear area B-score, replicate 1: -1.02

CG10996 [DRSC19363]
- droplet/nuclear area B-score, replicate 1: 0.347

Rm62 [DRSC12365]
- droplet/nuclear area B-score, replicate 1: 0.653

gukh [DRSC14768]
- droplet/nuclear area B-score, replicate 1: -0.0402

gukh [DRSC15806]
- droplet/nuclear area B-score, replicate 1: -1.47

gukh [DRSC15944]
- droplet/nuclear area B-score, replicate 1: 0.0955

CG31778 [DRSC00283]
- droplet/nuclear area B-score, replicate 1: -0.646

mthl10 [DRSC08504]
- droplet/nuclear area B-score, replicate 1: -1.85

mthl10 [DRSC08505]
- droplet/nuclear area B-score, replicate 1: -1.82

Mpcp1 [DRSC07337]
- droplet/nuclear area B-score, replicate 1: -0.0052

Gr58b [DRSC04140]
- droplet/nuclear area B-score, replicate 1: 1.95

XNP [DRSC15594]
- droplet/nuclear area B-score, replicate 1: 0.942

tll [DRSC17085]
- droplet/nuclear area B-score, replicate 1: 0.0955

CycB [DRSC04605]
- droplet/nuclear area B-score, replicate 1: -0.338

CG9826 [DRSC04570]
- droplet/nuclear area B-score, replicate 1: -0.8

hzg [DRSC10549]
- droplet/nuclear area B-score, replicate 1: -3.4

wac [DRSC08349]
- droplet/nuclear area B-score, replicate 1: 0.23

mRpL16 [DRSC18550]
- droplet/nuclear area B-score, replicate 1: 0.0431

Cyp12a4 [DRSC16620]
- droplet/nuclear area B-score, replicate 1: -0.74

bi [DRSC18742]
- droplet/nuclear area B-score, replicate 1: 0.164

CG3191 [DRSC18530]
- droplet/nuclear area B-score, replicate 1: 0.143

AOX2 [DRSC15338]
- droplet/nuclear area B-score, replicate 1: -0.0485

egl [DRSC04682]
- droplet/nuclear area B-score, replicate 1: 1.3

rush [DRSC18568]
- droplet/nuclear area B-score, replicate 1: -1.53

CG11755 [DRSC14374]
- droplet/nuclear area B-score, replicate 1: 0.108

CG15564 [DRSC15102]
- droplet/nuclear area B-score, replicate 1: 1.51
